At least one compound was matched to its structure with a doubt left. Non-standard residues stand in square brackets, D forms with d. Residues, ends and D or L forms follow the SMILES beside them. NMeF = CN[C@@H](Cc1ccccc1)C(=O)O
Molecular target: T1, cloned rat μ receptor (Rattus norvegicus, UniProt P33535)
T1 construct: expressed in transfected cells; host or cells: COS-7 (transient)
Settings: read-out: Binding potencies (Ki-nM) μ RECEPTOR [^3H] DAMGO

The chains behind the UniProt entries cited, without tags or fusion partners.
UniProt P33535, whole entry: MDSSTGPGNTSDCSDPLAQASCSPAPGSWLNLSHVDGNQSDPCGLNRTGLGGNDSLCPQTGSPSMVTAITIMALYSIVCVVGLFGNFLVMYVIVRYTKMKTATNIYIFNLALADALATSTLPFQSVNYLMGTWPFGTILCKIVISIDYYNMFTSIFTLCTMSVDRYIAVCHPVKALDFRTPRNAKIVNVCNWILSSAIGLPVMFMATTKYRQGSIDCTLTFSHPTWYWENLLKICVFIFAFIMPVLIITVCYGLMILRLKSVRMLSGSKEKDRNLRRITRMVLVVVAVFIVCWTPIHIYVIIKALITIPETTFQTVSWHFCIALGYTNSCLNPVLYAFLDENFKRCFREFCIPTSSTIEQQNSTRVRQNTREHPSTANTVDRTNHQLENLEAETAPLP

Q: How did the Ki turn out when `CN(C(=O)[C@@H]1CCCN1C(=O)[C@@H](N)Cc1ccc(O)cc1)[C@@H](Cc1ccccc1)C(=O)N1CCC[C@@H]1C(N)=O` [PLO17] (H-YP[NMeF][dP]-NH2; N-terminus and C-terminus assumed) was run?
A: Its Ki is 30 nM.
